Results reported in article PMC4278844.
These are yes or no findings as the source states them, for the method shown. Binding seen in cells or lysates may run through a third protein. Some results given as binding are weak or reduced against the parent protein; the word gives no strength.

Tests used:
[1] = molecular target: T1, Activating transcription factor 7 (ATF7), endogenous (human (endogenous in HeLa S3)) (UniProt P17544); experiment: co-IP; endogenous ATF2 or ATF7 immunoprecipitated with specific antibodies (ATF2[SS-16]; ATF7[SAB2500131 or HPA003384]) on protein-G beads from Triton X-100 lysates of asynchronous and mitotic (shake-off) HeLa S3 cells; Western blot
T1 sequence: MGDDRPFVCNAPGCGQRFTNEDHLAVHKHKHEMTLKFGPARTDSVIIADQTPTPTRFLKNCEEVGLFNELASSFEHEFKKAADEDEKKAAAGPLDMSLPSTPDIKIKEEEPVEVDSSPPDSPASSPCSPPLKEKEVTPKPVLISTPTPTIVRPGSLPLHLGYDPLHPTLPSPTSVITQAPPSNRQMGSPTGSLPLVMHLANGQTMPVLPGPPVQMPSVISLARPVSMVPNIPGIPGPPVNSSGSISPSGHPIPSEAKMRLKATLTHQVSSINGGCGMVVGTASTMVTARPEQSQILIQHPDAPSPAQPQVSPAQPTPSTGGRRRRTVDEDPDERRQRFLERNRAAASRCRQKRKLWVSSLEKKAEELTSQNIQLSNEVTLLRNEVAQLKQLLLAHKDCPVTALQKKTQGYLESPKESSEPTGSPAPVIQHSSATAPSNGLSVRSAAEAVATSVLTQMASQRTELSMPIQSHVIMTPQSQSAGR

[2] = molecular target: T2, Activating transcription factor 2 (ATF2), endogenous (human (endogenous in HeLa S3)) (UniProt P15336); experiment: as above
T2 sequence: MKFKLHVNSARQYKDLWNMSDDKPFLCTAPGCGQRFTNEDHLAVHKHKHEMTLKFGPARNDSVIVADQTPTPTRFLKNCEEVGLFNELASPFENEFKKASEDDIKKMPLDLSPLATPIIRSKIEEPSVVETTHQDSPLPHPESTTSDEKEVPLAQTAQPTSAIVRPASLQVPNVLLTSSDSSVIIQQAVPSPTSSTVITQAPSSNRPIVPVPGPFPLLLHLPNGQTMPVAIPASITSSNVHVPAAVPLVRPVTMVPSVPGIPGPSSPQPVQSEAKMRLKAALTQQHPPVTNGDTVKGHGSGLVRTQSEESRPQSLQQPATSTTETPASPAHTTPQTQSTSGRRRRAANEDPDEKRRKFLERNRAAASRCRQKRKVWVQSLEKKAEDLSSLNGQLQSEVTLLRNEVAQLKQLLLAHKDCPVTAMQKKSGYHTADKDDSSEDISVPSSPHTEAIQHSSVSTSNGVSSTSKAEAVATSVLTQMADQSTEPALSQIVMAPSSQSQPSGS

B1: Activating transcription factor 2 (ATF2), endogenous (protein, UniProt P15336-1 1-505)
chain: MKFKLHVNSARQYKDLWNMSDDKPFLCTAPGCGQRFTNEDHLAVHKHKHEMTLKFGPARNDSVIVADQTPTPTRFLKNCEEVGLFNELASPFENEFKKASEDDIKKMPLDLSPLATPIIRSKIEEPSVVETTHQDSPLPHPESTTSDEKEVPLAQTAQPTSAIVRPASLQVPNVLLTSSDSSVIIQQAVPSPTSSTVITQAPSSNRPIVPVPGPFPLLLHLPNGQTMPVAIPASITSSNVHVPAAVPLVRPVTMVPSVPGIPGPSSPQPVQSEAKMRLKAALTQQHPPVTNGDTVKGHGSGLVRTQSEESRPQSLQQPATSTTETPASPAHTTPQTQSTSGRRRRAANEDPDEKRRKFLERNRAAASRCRQKRKVWVQSLEKKAEDLSSLNGQLQSEVTLLRNEVAQLKQLLLAHKDCPVTAMQKKSGYHTADKDDSSEDISVPSSPHTEAIQHSSVSTSNGVSSTSKAEAVATSVLTQMADQSTEPALSQIVMAPSSQSQPSGS
**Q.** With B1 as the binder, how does the binding [1] read?
**A.** binds

B2: Activating transcription factor 7 (ATF7), endogenous (protein, UniProt P17544 1-483)
chain: MGDDRPFVCNAPGCGQRFTNEDHLAVHKHKHEMTLKFGPARTDSVIIADQTPTPTRFLKNCEEVGLFNELASSFEHEFKKAADEDEKKAAAGPLDMSLPSTPDIKIKEEEPVEVDSSPPDSPASSPCSPPLKEKEVTPKPVLISTPTPTIVRPGSLPLHLGYDPLHPTLPSPTSVITQAPPSNRQMGSPTGSLPLVMHLANGQTMPVLPGPPVQMPSVISLARPVSMVPNIPGIPGPPVNSSGSISPSGHPIPSEAKMRLKATLTHQVSSINGGCGMVVGTASTMVTARPEQSQILIQHPDAPSPAQPQVSPAQPTPSTGGRRRRTVDEDPDERRQRFLERNRAAASRCRQKRKLWVSSLEKKAEELTSQNIQLSNEVTLLRNEVAQLKQLLLAHKDCPVTALQKKTQGYLESPKESSEPTGSPAPVIQHSSATAPSNGLSVRSAAEAVATSVLTQMASQRTELSMPIQSHVIMTPQSQSAGR
**Q.** Which binding [2] does the source give for B2 here?
**A.** binds
